Here are results for 8 substances from article doi:10.1101/2020.03.27.011510 (bioRxiv, 2020).

Amino acid sequences for entries named in this document (tags omitted). A change or cut given only in a name is not applied to a line headed by its entry. Residues count along the entry.
UniProt P98170, 10-99: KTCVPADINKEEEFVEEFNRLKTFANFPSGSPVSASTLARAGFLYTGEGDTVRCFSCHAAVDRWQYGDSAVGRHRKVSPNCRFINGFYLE

Where two headings read alike, the source gives them in different places. These are yes or no findings as the source states them, for the method shown. Some entries that bind do so weakly or less than the wild type.

Experiment [1] has as its target BIR1 C12A/E22C-GdI (UniProt P98170). In words: DEER.
Experiment [2] shares this target. The experiment in a line: DEER. The source holds these as a separate data set.
For experiment [3] the target is unchanged. In words: DEER. This is another data set of the same source.
The target in experiment [4] is BIR1 C12A/E22C-GdII (UniProt P98170). The experiment in a line: DEER.
Experiment [5] has the same target. In words: DEER. The source holds these as a separate data set.
Experiment [6] shares this target. The experiment in a line: DEER. The source holds these as a separate data set.
A further experiment concerns the target BIR1 C12A/K19C-GdI (UniProt P98170). In words: DEER.
Experiment [7] deals with S87A BIR1 mutant, without spin label (UniProt P98170). The experiment in a line: SEC. (In gel filtration, larger molecules generally elute earlier.)
For experiment [8], the target named is WT BIR1 C12-GdII (spin-labelled at C12 with BrPSPy-DO3MA-Gd3+) (UniProt P98170). The experiment in a line: DEER.
For experiment [9] the target is unchanged. The experiment in a line: DEER. This is another data set of the same source.
Experiment [10] deals with BIR1 C12A/N28C-GdII (UniProt P98170). In words: DEER.
For experiment [11] the target is unchanged. In words: DEER. The source holds these as a separate data set.
Experiment [12] concerns the target BIR1 C12A/N28C-GdI (UniProt P98170). The experiment in a line: DEER.
For experiment [13] the target is unchanged. The experiment in a line: DEER. This is another data set of the same source.
The next experiment deals with BIR1 C12A/V24C-GdI (UniProt P98170). In words: DEER.

For “BIR1 C12A/E22C-GdI (from UniProt P98170 10-99) (domain or fragment)”, the binding entry with BIR1 C12A/E22C-GdI [1], with BIR1 C12A/E22C-GdI [2] and with BIR1 C12A/E22C-GdI [3] was “binds” throughout.

As to “BIR1 C12A/E22C-GdII (from UniProt P98170 10-99) (domain or fragment)”, the binding entry with BIR1 C12A/E22C-GdII [4], with BIR1 C12A/E22C-GdII [5] and in the experiment with BIR1 C12A/E22C-GdII [6] was “binds” in each case.

On to “BIR1 C12A/K19C-GdI (from UniProt P98170 10-99) (domain or fragment)”, for which the binding result in the experiment with BIR1 C12A/K19C-GdI is listed as “binds”.

For “S87A BIR1 mutant, without spin label (from UniProt P98170 10-99) (domain or fragment)”, the binding result in experiment [7] is “binds”.

“WT BIR1 C12-GdII (spin-labelled at C12 with BrPSPy-DO3MA-Gd3+) (from UniProt P98170 10-99) (domain or fragment)”: the binding entry in experiment [8] and in [9] was “binds” in each case.

With “BIR1 C12A/N28C-GdII (from UniProt P98170 10-99) (domain or fragment)”, the binding entry in the experiment with BIR1 C12A/N28C-GdII [10] and with BIR1 C12A/N28C-GdII [11] was “binds” throughout.

With “BIR1 C12A/N28C-GdI (from UniProt P98170 10-99) (domain or fragment)”, the binding result with BIR1 C12A/N28C-GdI [12] and with BIR1 C12A/N28C-GdI [13] was “binds” throughout.

Regarding “BIR1 C12A/V24C-GdI (from UniProt P98170 10-99) (domain or fragment)”, in the experiment with BIR1 C12A/V24C-GdI, the binding result was “binds”.
